In patent publication US20090012270A1 (MEDICAL RESEARCH COUNCIL, published 2009):
Results are given in words; binding and its absence hold for the method and conditions named. Some binding calls cover weakened binding; strength is not graded here. Sequences can lack the tags named with a protein.

Target: T1, rat OX2 receptor homolog 1 (OX2RH1) (rat) (UniProt Q9ES58)
T1 sequence: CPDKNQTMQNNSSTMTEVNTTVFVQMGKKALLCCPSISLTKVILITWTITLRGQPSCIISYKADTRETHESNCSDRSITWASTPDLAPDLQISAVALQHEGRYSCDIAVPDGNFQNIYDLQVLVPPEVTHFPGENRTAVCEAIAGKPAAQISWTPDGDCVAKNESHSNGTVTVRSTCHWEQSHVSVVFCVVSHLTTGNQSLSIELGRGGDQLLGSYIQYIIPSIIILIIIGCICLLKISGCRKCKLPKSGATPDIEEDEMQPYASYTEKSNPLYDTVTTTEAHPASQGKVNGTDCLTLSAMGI
Experiment: fluorescent bead assay with rat peritoneal macrophages

binding: binds
B1: recombinant rat OX2-CD4 fusion protein on fluorescent beads (ligand, UniProt P04218 31-232, looked up)
chain: QVEVVTQDERKLLHTTASLRCSLKTTQEPLIVTWQKKKAVGPENMVTYSKAHGVVIQPTYKDRINITELGLLNTSITFWNTTLDDEGCYMCLFNMFGSGKVSGTACLTLYVQPIVHLHYNYFEDHLNITCSATARPAPAISWKGTGSGIENSTESHSHSNGTTSVTSILRVKDPKTQVGKEVICQVLYLGNVIDYKQSLDKGFASTSITAYKSEGESAEFSFPLNLGEESLQGELRWKAEKAPSSQSWITFSLKNQKVSVQKSTSNPKFQLSETLPLTLQIPQVSLQFAGSGNLTLTLDRGILYQEVNLVVMKVTQPDSNTLTCEVMGPTSPKMRLILKQENQEARVSRQEKVIQVQAPEAGVWQCLLSEGEEVKMDSKIQVLSKGLNQT
